Laboratory results from paper PMC3349853.
Results are given in words; binding and its absence hold for the method and conditions named. Binding seen in cells or lysates may run through a third protein. A result given as binding can be weak or reduced; the word gives no strength.

Protein sequences, listed by entry. Tags and fused reporters are not part of them. Lines headed by an entry give the natural chain unless they say otherwise; changes in a name come on top.
UniProt P0CAP1: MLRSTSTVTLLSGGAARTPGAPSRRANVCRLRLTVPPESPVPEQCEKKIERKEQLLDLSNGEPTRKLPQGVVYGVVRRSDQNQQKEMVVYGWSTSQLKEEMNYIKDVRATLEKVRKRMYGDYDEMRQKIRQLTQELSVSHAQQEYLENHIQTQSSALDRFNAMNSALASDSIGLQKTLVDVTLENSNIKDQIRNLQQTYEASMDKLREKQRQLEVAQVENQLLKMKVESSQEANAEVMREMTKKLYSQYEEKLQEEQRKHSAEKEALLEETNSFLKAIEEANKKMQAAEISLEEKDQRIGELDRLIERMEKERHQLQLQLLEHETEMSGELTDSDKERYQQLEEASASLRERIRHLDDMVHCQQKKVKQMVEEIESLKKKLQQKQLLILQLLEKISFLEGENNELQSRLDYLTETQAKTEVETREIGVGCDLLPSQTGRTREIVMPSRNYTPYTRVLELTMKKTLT
UniProt P15924: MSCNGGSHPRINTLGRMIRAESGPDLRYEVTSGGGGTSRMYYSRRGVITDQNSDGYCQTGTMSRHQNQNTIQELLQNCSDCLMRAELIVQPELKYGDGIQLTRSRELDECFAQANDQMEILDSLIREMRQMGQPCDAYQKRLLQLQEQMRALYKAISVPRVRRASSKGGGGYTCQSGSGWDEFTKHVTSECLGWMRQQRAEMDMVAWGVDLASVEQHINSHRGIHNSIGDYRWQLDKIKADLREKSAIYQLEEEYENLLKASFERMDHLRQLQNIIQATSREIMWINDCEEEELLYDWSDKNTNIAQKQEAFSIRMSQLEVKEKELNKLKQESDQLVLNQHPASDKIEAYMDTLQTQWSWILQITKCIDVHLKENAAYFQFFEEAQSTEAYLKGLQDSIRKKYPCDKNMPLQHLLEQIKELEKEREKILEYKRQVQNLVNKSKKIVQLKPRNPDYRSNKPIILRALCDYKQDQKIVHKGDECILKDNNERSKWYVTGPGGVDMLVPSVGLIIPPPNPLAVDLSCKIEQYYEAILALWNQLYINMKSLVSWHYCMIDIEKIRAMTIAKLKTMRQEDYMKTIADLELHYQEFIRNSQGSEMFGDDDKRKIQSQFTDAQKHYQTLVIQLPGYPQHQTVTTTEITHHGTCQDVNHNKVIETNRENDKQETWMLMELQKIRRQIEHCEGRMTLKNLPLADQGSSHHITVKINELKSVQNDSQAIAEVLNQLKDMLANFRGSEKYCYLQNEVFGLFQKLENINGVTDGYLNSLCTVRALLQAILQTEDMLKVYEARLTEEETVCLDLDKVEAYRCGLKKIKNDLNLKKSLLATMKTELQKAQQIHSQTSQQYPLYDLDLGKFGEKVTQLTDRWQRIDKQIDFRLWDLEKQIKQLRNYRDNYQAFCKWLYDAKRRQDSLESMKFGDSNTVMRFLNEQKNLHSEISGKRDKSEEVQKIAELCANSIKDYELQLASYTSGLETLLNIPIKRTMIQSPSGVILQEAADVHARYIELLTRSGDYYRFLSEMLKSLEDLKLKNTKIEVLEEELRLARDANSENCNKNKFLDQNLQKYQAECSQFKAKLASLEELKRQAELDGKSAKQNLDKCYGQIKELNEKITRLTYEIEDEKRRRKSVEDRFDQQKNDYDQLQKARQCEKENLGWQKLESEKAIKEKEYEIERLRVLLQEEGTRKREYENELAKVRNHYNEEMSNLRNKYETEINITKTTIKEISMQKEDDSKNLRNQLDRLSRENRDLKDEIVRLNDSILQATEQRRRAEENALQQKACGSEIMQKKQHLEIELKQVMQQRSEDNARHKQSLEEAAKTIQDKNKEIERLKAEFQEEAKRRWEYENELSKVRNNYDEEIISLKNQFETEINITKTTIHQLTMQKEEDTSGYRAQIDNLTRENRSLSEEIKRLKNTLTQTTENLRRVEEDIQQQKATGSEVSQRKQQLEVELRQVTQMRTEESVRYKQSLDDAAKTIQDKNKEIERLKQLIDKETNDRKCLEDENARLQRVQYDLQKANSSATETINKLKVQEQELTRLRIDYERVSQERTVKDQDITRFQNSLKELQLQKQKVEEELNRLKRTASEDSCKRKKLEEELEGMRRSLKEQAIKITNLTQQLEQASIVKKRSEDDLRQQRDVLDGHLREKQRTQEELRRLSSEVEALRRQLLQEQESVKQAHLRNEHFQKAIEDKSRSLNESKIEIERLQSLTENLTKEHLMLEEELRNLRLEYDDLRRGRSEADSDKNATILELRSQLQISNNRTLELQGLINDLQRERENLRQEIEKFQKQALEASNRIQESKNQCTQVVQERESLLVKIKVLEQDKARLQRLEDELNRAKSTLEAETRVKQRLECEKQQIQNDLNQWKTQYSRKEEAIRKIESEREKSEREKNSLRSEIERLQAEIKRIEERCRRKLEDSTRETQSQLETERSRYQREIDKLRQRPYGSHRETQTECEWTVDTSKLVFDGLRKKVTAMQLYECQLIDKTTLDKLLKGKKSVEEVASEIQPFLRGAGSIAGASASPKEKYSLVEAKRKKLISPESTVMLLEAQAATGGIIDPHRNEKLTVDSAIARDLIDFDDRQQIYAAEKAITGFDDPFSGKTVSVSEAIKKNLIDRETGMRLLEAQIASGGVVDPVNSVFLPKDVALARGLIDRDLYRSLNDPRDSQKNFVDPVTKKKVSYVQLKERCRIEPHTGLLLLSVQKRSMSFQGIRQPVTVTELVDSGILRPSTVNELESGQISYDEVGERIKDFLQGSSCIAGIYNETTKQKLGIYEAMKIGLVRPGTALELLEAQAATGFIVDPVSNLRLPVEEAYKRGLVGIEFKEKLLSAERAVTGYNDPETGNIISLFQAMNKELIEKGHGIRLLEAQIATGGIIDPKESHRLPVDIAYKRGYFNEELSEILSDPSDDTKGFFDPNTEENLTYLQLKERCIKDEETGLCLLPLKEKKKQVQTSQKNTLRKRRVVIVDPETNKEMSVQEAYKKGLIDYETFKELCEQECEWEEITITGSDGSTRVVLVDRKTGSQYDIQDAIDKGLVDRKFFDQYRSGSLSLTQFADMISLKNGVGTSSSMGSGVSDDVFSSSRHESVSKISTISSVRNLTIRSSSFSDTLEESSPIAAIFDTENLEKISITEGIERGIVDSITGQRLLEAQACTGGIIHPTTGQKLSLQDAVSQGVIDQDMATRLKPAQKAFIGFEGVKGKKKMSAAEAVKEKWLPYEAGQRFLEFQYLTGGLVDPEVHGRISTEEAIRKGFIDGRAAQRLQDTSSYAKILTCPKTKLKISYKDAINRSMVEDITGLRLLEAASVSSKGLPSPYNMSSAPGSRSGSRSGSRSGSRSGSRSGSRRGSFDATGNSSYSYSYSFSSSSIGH
UniProt Q07157: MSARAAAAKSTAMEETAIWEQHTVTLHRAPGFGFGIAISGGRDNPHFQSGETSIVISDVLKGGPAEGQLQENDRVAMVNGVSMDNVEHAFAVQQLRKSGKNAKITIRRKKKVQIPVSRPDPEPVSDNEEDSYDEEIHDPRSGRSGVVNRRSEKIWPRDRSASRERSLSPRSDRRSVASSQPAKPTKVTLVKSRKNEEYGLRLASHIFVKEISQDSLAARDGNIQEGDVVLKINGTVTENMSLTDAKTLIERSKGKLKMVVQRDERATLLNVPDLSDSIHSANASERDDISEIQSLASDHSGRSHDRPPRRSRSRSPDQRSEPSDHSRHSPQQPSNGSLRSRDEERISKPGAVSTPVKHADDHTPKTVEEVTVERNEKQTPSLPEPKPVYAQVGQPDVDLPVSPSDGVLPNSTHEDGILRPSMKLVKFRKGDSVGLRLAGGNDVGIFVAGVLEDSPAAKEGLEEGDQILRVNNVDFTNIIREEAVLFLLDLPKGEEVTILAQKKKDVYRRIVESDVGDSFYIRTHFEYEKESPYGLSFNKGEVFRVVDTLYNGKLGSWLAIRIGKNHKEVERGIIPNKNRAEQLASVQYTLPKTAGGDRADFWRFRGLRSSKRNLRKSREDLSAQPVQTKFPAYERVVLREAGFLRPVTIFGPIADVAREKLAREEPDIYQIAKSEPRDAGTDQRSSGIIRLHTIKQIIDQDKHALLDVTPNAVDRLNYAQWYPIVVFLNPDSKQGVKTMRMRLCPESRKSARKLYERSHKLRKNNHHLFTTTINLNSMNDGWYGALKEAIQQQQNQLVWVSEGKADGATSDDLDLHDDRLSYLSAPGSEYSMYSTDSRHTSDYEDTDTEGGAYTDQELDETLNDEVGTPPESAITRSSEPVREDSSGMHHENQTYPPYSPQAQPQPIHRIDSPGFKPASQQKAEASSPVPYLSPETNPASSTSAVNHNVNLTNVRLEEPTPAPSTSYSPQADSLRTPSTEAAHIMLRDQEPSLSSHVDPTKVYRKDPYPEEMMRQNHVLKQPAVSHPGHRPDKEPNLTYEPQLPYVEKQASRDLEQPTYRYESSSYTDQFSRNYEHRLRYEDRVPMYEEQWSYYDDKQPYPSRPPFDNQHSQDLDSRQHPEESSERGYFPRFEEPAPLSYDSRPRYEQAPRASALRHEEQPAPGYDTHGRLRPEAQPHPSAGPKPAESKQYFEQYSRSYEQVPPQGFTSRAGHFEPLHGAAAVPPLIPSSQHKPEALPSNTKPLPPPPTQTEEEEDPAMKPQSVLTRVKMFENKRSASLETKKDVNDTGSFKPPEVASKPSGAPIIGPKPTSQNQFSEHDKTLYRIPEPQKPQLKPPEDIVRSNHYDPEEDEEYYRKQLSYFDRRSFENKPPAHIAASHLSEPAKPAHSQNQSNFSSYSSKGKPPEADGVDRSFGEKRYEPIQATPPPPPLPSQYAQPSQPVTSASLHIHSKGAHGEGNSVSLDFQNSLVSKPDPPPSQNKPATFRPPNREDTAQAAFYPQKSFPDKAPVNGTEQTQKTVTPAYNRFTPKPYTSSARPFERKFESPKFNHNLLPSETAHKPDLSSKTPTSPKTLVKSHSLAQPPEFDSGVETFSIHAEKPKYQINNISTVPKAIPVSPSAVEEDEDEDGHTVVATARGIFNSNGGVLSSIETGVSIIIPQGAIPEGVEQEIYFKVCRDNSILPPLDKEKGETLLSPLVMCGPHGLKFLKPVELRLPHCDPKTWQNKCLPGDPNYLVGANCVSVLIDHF

B1: plakophilin-2 (protein, UniProt Q99959 1-881)
chain: MAAPGAPAEYGYIRTVLGQQILGQLDSSSLALPSEAKLKLAGSSGRGGQTVKSLRIQEQVQQTLARKGRSSVGNGNLHRTSSVPEYVYNLHLVENDFVGGRSPVPKTYDMLKAGTTATYEGRWGRGTAQYSSQKSVEERSLRHPLRRLEISPDSSPERAHYTHSDYQYSQRSQAGHTLHHQESRRAALLVPPRYARSEIVGVSRAGTTSRQRHFDTYHRQYQHGSVSDTVFDSIPANPALLTYPRPGTSRSMGNLLEKENYLTAGLTVGQVRPLVPLQPVTQNRASRSSWHQSSFHSTRTLREAGPSVAVDSSGRRAHLTVGQAAAGGSGNLLTERSTFTDSQLGNADMEMTLERAVSMLEADHMLPSRISAAATFIQHECFQKSEARKRVNQLRGILKLLQLLKVQNEDVQRAVCGALRNLVFEDNDNKLEVAELNGVPRLLQVLKQTRDLETKKQITDHTVNLRSRNGWPGAVAHACNPSTLGGQGGRITRSGVRDQPDQHGLLWNLSSNDKLKNLMITEALLTLTENIIIPFSGWPEGDYPKANGLLDFDIFYNVTGCLRNMSSAGADGRKAMRRCDGLIDSLVHYVRGTIADYQPDDKATENCVCILHNLSYQLEAELPEKYSQNIYIQNRNIQTDNNKSIGCFGSRSRKVKEQYQDVPMPEEKSNPKGVEWLWHSIVIRMYLSLIAKSVRNYTQEASLGALQNLTAGSGPMPTSVAQTVVQKESGLQHTRKMLHVGDPSVKKTAISLLRNLSRNLSLQNEIAKETLPDLVSIIPDTVPSTDLLIETTASACYTLNNIIQNSYQNARDLLNTGGIQKIMAISAGDAYASNKASKAASVLLYSLWAHTELHHAYKKAQFKKTDFVNSRTAKAYHSLKD

target: protein myozap (UniProt P0CAP1); test: co-IP; immunoprecipitation experiments on myozap; source of the material not told

binding, binds:
desmoplakin (from UniProt P15924 1-2871)
protein ZO-1 (from UniProt Q07157 1-1748)
B1
